In PubChem BioAssay AID290 (DTP/NCI, 2004):
The list is a part of this screen's results and no random one: it is rich in T/C values a quarter to a half above the control, in often repeated tests (any T/C) and in doses without a T/C. Further doses and runs are listed elsewhere. T/C gives the treated animals as a percentage of the vehicle group. Schedule codes are those of the source, taken here to give the interval after Q, in days (D) or hours (H), and the number of doses after X. Some T/C values are followed by the survivors on the day toxicity was checked, most often the fifth; where none is given, no animal had died by that day. Some entries hold several experiments; their values stand side by side, smallest first. Some entries give survivors of the animals treated and no T/C: the source files T/C as zero there, which appears to mark a toxic dose or a test without result, not a measured value. Some survivor counts are full or nearly so, which does not show that the dose was tolerated: the source hardly ever lists a survival T/C far under the control, and the zero likely stands for such cases as well. Survivors were counted at the toxicity check, usually on the fifth day, unless a day is given; later deaths do not show. Where survival is the endpoint, this PubChem deposit counts one and a half times the control or more as active, and values a quarter to a half above the control carry no call in these data; other NCI protocols may use other cut-offs.

System: mice, P1798 lymphosarcoma sc, survival or tumor weight T/C
Test: NCI In Vivo Anticancer Drug Screen. Data for tumor model P1798 Lymphosarcoma (subcutaneous) in unknown mice
Protocol: The antitumor activity of compounds was measured in mice bearing transplantable tumors. Survival or tumor size were measured and the results are expressed as the measurement made in the treated group (T) divided by the measurement made in the vehicle treated control group (C). The tumor model used in this assay is P1798 Lymphosarcoma (subcutaneous) in unknown mice

[1] = T/C endpoint: mean tumor weight, dose: 100.0 mg/kg/injection, schedule: Q01DX010 (ip), vehicle: carboxymethylcellulose (CMC), higher T/C = larger tumour

In the case of `CC[C@]1(O)C[C@H]2CN(CCc3c([nH]c4ccccc34)[C@@](C(=O)OC)(c3cc4c(cc3OC)N(C=O)[C@H]3[C@@](O)(C(=O)OC)[C@H](OC(C)=O)[C@]5(CC)C=CCN6CC[C@]43[C@@H]65)C2)C1`, the T/C (T/C endpoint: mean tumor weight, dose: 0.06 mg/kg/injection, schedule: Q01DX010 (ip), vehicle: water, evaluated on day 14, higher T/C = larger tumour) is reported as 7, 10, 11, 18, 38 % of control, the T/C (T/C endpoint: mean tumor weight, dose: 0.12 mg/kg/injection, schedule: Q01DX010 (ip), vehicle: water, evaluated on day 14, higher T/C = larger tumour) is reported as 1, 22 [9 of 10 alive], 36 % of control and the T/C (T/C endpoint: mean tumor weight, dose: 0.25 mg/kg/injection, schedule: Q01DX010 (ip), vehicle: water, evaluated on day 14, higher T/C = larger tumour) is reported as 1, 5 [9 of 10 alive], 27 % of control. For the same compound, the survivor count (T/C endpoint: mean tumor weight, dose: 0.25 mg/kg/injection, schedule: Q01DX010 (ip), vehicle: water, higher T/C = larger tumour) was 1 of 10, the survivor count (T/C endpoint: mean tumor weight, dose: 2.7 mg/kg/injection, schedule: Q01DX001 (ip), vehicle: saline, higher T/C = larger tumour) was 5 of 10 and the T/C (T/C endpoint: mean tumor weight, dose: 31.0 micrograms/kg/injection, schedule: Q01DX010 (ip), vehicle: water, evaluated on day 20, higher T/C = larger tumour) was 137 % of control [9 of 10 alive]. The survivor count (T/C endpoint: mean tumor weight, dose: 250.0 micrograms/kg/injection, schedule: Q01DX010 (ip), vehicle: water, higher T/C = larger tumour) was 4 of 10.
With `S=c1nc[nH]c2nc[nH]c12` the T/C (T/C endpoint: mean tumor weight, dose: 25.0 mg/kg/injection, schedule: Q01DX010 (ip), vehicle: other, evaluated on day 14, higher T/C = larger tumour) was 74 % of control, the T/C (T/C endpoint: mean tumor weight, dose: 25.0 mg/kg/injection, schedule: Q01DX010 (ip), vehicle: other, evaluated on day 20, higher T/C = larger tumour) was 69 and 77 % of control [9 of 10 alive] and the survivor count (T/C endpoint: mean tumor weight, dose: 25.0 mg/kg/injection, schedule: Q01DX010 (ip), vehicle: other, higher T/C = larger tumour) was 0 of 10. The T/C (T/C endpoint: mean tumor weight, dose: 37.5 mg/kg/injection, schedule: Q01DX010 (ip), vehicle: other, evaluated on day 14, higher T/C = larger tumour) was 34 [9 of 10 alive], 53, 62 [9 of 10 alive], 71 % of control, the T/C (T/C endpoint: mean tumor weight, dose: 50.0 mg/kg/injection, schedule: Q01DX010 (ip), vehicle: other, evaluated on day 14, higher T/C = larger tumour) was 61 % of control and the T/C (T/C endpoint: mean tumor weight, dose: 50.0 mg/kg/injection, schedule: Q01DX010 (ip), vehicle: other, evaluated on day 20, higher T/C = larger tumour) was 101 % of control [9 of 10 alive]. The survivor count (T/C endpoint: mean tumor weight, dose: 50.0 mg/kg/injection, schedule: Q01DX010 (ip), vehicle: other, higher T/C = larger tumour) was 0 of 10 and 4 of 10, the T/C (T/C endpoint: mean tumor weight, dose: 68.0 mg/kg/injection, schedule: Q01DX001 (ip), vehicle: carboxymethylcellulose (CMC), evaluated on day 12, higher T/C = larger tumour) was 134 % of control [8 of 10 alive] and the T/C (T/C endpoint: mean tumor weight, dose: 75.0 mg/kg/injection, schedule: Q01DX010 (ip), vehicle: other, evaluated on day 14, higher T/C = larger tumour) was 5 [7 of 10 alive], 31 [9 of 10 alive], 49 % of control [8 of 10 alive]. The survivor count (T/C endpoint: mean tumor weight, dose: 75.0 mg/kg/injection, schedule: Q01DX010 (ip), vehicle: other, higher T/C = larger tumour) was 1 of 10, the survivor count (T/C endpoint: mean tumor weight, dose: 100.0 mg/kg/injection, schedule: Q01DX010 (ip), vehicle: other, higher T/C = larger tumour) was 0 of 10 and 4 of 10 and the survivor count (T/C endpoint: mean tumor weight, dose: 135.0 mg/kg/injection, schedule: Q01DX001 (ip), vehicle: carboxymethylcellulose (CMC), higher T/C = larger tumour) was 6 of 10. The survivor count (T/C endpoint: mean tumor weight, dose: 150.0 mg/kg/injection, schedule: Q01DX010 (ip), vehicle: other, higher T/C = larger tumour) was 0 of 10 and the survivor count (T/C endpoint: mean tumor weight, dose: 300.0 mg/kg/injection, schedule: Q01DX010 (ip), vehicle: other, higher T/C = larger tumour) was 0 of 10.
With `Cn1c(O)c(N=NC(N)=S)c2ccccc21` the survivor count (T/C endpoint: mean tumor weight, dose: 200.0 mg/kg/injection, schedule: Q01DX011 (ip), vehicle: carboxymethylcellulose (CMC), higher T/C = larger tumour) was 5 of 10.
In the case of `CCCCCCCCCCCCCCCCC(C(=O)O)C(O)(CC(=O)O)C(=O)O` (centres undefined), the survivor count (T/C endpoint: mean tumor weight, dose: 50.0 mg/kg/injection, schedule: Q01DX010 (ip), vehicle: carboxymethylcellulose (CMC), higher T/C = larger tumour) is reported as 6 of 10 and the survivor count [1] is reported as 0 of 10.
In the case of `CS(=O)(=O)OCCCl`, the survivor count [1] is reported as 4 of 10.
For `CN(Cc1cnc2nc(N)nc(N)c2n1)c1ccc(C(=O)N[C@@H](CCC(=O)O)C(=O)O)cc1`, the T/C (T/C endpoint: mean tumor weight, dose: 0.5 mg/kg/injection, schedule: Q01DX010 (ip), vehicle: other, evaluated on day 14, higher T/C = larger tumour) was 31 [9 of 10 alive], 44, 54, 59, 61 [9 of 10 alive], 81 % of control, the T/C (T/C endpoint: mean tumor weight, dose: 0.62 mg/kg/injection, schedule: Q01DX010 (ip), vehicle: other, evaluated on day 14, higher T/C = larger tumour) was 27, 29, 30 [8 of 10 alive], 38 [9 of 10 alive], 68, 70 % of control and the T/C (T/C endpoint: mean tumor weight, dose: 0.62 mg/kg/injection, schedule: Q01DX010 (ip), vehicle: other, evaluated on day 20, higher T/C = larger tumour) was 81 % of control [8 of 10 alive]. The T/C (T/C endpoint: mean tumor weight, dose: 1.0 mg/kg/injection, schedule: Q01DX010 (ip), vehicle: other, evaluated on day 14, higher T/C = larger tumour) was 2 [9 of 10 alive], 13 [9 of 10 alive], 21, 35 [9 of 10 alive], 40 [8 of 10 alive], 60 % of control, the T/C (T/C endpoint: mean tumor weight, dose: 1.25 mg/kg/injection, schedule: Q01DX010 (ip), vehicle: other, evaluated on day 14, higher T/C = larger tumour) was 7, 7 [7 of 10 alive], 18 [8 of 10 alive], 18 [9 of 10 alive], 20, 55 % of control [8 of 10 alive] and the survivor count (T/C endpoint: mean tumor weight, dose: 1.25 mg/kg/injection, schedule: Q01DX010 (ip), vehicle: other, higher T/C = larger tumour) was 1 of 10. The survivor count (T/C endpoint: mean tumor weight, dose: 1.8 mg/kg/injection, schedule: Q01DX010 (sc), vehicle: other, higher T/C = larger tumour) was 1 of 10, the T/C (T/C endpoint: mean tumor weight, dose: 2.0 mg/kg/injection, schedule: Q01DX010 (ip), vehicle: other, evaluated on day 14, higher T/C = larger tumour) was 5, 8 [9 of 10 alive], 11, 17 % of control [8 of 10 alive] and the survivor count (T/C endpoint: mean tumor weight, dose: 2.1 mg/kg/injection, schedule: Q01DX011 (ip), vehicle: carboxymethylcellulose (CMC), higher T/C = larger tumour) was 1 of 10. For the same compound, the T/C (T/C endpoint: mean tumor weight, dose: 2.5 mg/kg/injection, schedule: Q01DX010 (ip), vehicle: other, evaluated on day 14, higher T/C = larger tumour) was 3 [7 of 10 alive] and 9 % of control [9 of 10 alive], the survivor count (T/C endpoint: mean tumor weight, dose: 2.5 mg/kg/injection, schedule: Q01DX010 (ip), vehicle: other, higher T/C = larger tumour) was 0 of 10 and the survivor count (T/C endpoint: mean tumor weight, dose: 3.0 mg/kg/injection, schedule: Q01DX010 (sc), vehicle: other, higher T/C = larger tumour) was 0 of 10. The survivor count (T/C endpoint: mean tumor weight, dose: 5.0 mg/kg/injection, schedule: Q01DX010 (ip), vehicle: other, higher T/C = larger tumour) was 0 of 10, the survivor count (T/C endpoint: median survival time, dose: 2.5 mg/kg/injection, schedule: Q01DX010 (ip), vehicle: sodium bicarbonate, higher T/C = longer survival) was 10 of 10 and the survivor count (T/C endpoint: median survival time, dose: 4.0 mg/kg/injection, schedule: Q04DX007 (ip), vehicle: sodium bicarbonate, higher T/C = longer survival) was 10 of 10. For the same compound, the survivor count (T/C endpoint: median survival time, dose: 5.0 mg/kg/injection, schedule: Q01DX010 (ip), vehicle: sodium bicarbonate, higher T/C = longer survival) was 10 of 10, the T/C (T/C endpoint: median survival time, dose: 8.0 mg/kg/injection, schedule: Q04DX007 (ip), vehicle: saline, higher T/C = longer survival) was 125 % of control and the survivor count (T/C endpoint: median survival time, dose: 8.0 mg/kg/injection, schedule: Q04DX007 (ip), vehicle: sodium bicarbonate, higher T/C = longer survival) was 10 of 10. The survivor count (T/C endpoint: median survival time, dose: 16.0 mg/kg/injection, schedule: Q04DX007 (ip), vehicle: sodium bicarbonate, higher T/C = longer survival) was 10 of 10, the survivor count (T/C endpoint: median survival time, dose: 32.0 mg/kg/injection, schedule: Q04DX007 (ip), vehicle: sodium bicarbonate, higher T/C = longer survival) was 9 of 9 and the survivor count (T/C endpoint: median survival time, dose: 64.0 mg/kg/injection, schedule: Q04DX007 (ip), vehicle: saline, higher T/C = longer survival) was 10 of 10. For the same compound, the survivor count (T/C endpoint: median survival time, dose: 64.0 mg/kg/injection, schedule: Q04DX007 (ip), vehicle: sodium bicarbonate, higher T/C = longer survival) was 8 of 8 and the survivor count (T/C endpoint: median survival time, dose: 128.0 mg/kg/injection, schedule: Q04DX007 (ip), vehicle: saline, higher T/C = longer survival) was 10 of 10.
With `O=C(O)c1ccc(-c2ccccc2)cc1` the survivor count (T/C endpoint: mean tumor weight, dose: 500.0 mg/kg/injection, schedule: Q01DX010 (ip), vehicle: carboxymethylcellulose (CMC), higher T/C = larger tumour) was 0 of 10.
For `CN(C)c1ccc(Nc2c3ccccc3nc3ccccc23)cc1`, the survivor count (T/C endpoint: mean tumor weight, dose: 12.5 mg/kg/injection, schedule: Q01DX010 (ip), vehicle: carboxymethylcellulose (CMC), higher T/C = larger tumour) was 0 of 10, the survivor count (T/C endpoint: mean tumor weight, dose: 200.0 mg/kg/injection, schedule: Q01DX010 (ip), vehicle: carboxymethylcellulose (CMC), higher T/C = larger tumour) was 0 of 10 and the survivor count (T/C endpoint: mean tumor weight, dose: 400.0 mg/kg/injection, schedule: Q01DX010 (ip), vehicle: carboxymethylcellulose (CMC), higher T/C = larger tumour) was 0 of 10.
For `COC1=C(N)C(=O)c2nc(-c3nc(C(=O)O)c(C)c(-c4ccc(OC)c(OC)c4O)c3N)ccc2C1=O`, the survivor count (T/C endpoint: mean tumor weight, dose: 0.06 mg/kg/injection, schedule: Q01DX010 (ip), vehicle: saline, higher T/C = larger tumour) was 1 of 6, the survivor count (T/C endpoint: mean tumor weight, dose: 0.09 mg/kg/injection, schedule: Q01DX010 (ip), vehicle: saline, higher T/C = larger tumour) was 0 of 6 and the survivor count (T/C endpoint: mean tumor weight, dose: 0.13 mg/kg/injection, schedule: Q01DX010 (ip), vehicle: saline, higher T/C = larger tumour) was 0 of 6. For the same compound, the survivor count (T/C endpoint: mean tumor weight, dose: 0.2 mg/kg/injection, schedule: Q01DX010 (ip), vehicle: other, higher T/C = larger tumour) was 0 of 10, the survivor count (T/C endpoint: mean tumor weight, dose: 0.2 mg/kg/injection, schedule: Q01DX010 (ip), vehicle: saline, higher T/C = larger tumour) was 0 of 6 and the survivor count (T/C endpoint: mean tumor weight, dose: 0.4 mg/kg/injection, schedule: Q01DX010 (ip), vehicle: other, higher T/C = larger tumour) was 0 of 10. For the same compound, the survivor count (T/C endpoint: mean tumor weight, dose: 0.8 mg/kg/injection, schedule: Q01DX010 (ip), vehicle: other, higher T/C = larger tumour) was 0 of 10.
